These are yes or no findings as the source states them, for the method shown. Binding seen in cells or lysates may run through a third protein. A yes stands for co-enrichment or nearness to the bait. Other partners may have been found. Tags and fused reporters may be left off the sequences shown.
Target: T1, HA-DERL1 (Derlin-1) expressed in ZR-7530 and MDA-MB-231 cells (human) (UniProt Q9BUN8)
T1 sequence: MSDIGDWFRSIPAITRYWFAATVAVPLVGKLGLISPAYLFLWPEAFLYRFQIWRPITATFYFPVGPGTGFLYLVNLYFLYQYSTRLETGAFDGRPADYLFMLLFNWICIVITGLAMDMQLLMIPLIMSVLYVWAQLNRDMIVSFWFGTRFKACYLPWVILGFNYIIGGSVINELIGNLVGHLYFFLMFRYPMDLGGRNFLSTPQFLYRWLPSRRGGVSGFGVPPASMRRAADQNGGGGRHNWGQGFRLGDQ
Assay: affinity purification with mass spectrometry; HA-DERL1 transfected into ZR-7530 and MDA-MB-231 cells; HA-binding magnetic beads; LC-MS/MS (Q Exactive)

Protein sequences, listed by entry. Tags and fused reporters are not part of them.
UniProt Q9Y4K3: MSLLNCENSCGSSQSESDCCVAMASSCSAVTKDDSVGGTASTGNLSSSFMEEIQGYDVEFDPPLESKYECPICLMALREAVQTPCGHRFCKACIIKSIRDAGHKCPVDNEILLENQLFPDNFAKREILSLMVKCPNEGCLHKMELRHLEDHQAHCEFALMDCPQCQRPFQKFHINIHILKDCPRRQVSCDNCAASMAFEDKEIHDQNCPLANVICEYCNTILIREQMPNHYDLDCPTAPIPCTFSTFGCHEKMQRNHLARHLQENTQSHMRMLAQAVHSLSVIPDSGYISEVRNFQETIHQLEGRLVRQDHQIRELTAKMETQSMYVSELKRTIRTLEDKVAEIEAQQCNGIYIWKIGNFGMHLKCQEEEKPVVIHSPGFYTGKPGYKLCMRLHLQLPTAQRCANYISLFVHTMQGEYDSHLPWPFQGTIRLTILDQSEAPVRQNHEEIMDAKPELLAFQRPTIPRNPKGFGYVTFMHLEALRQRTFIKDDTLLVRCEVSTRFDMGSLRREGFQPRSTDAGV

With “tumor necrosis factor receptor-associated factor 6 (TRAF6), endogenous in ZR-7530 and MDA-MB-231 cells (from UniProt Q9Y4K3 1-522)” the binding was “binds”.

— article PMC11165795
